# From the supplement of paper PMC8728848
# The other results are listed elsewhere or left out.
# B1: PX14343F-bfa-562-20-562 (Bacteroides fragilis) (protein)
# chain: CDDFLDSFPQDTVTNENFWKSKEDADKVLVDIYASLLPKDAIFFDEAMSDNAYLVWDWWGGAQQVANGSYTTSGEIPTNRWNGSYEVIRKCWFLLEGIEKIEDISEQDKNKIIGETYFMLAYNYYVLTSYFGDVPLVTKTLAIPESKQLVRTPKAEVVDYAINKLKEAAVMLEGLSQEKGRVTADACRFLIARMYLYNGDYSNVLETVKLLEGKYQLYREGDTPYEDLFSGVAENSCEVILSVVCDKRVGEIYTSHGGNGIMLLKGITGEDPYRGVTPSGSLVDAYPMADGRLIHEAGSSYDPKKPYEGRDPRFYQSIVYPTGQIKYLDVETGTVKERLYDPEDPTTVPEHQYNYSQPSATGYMWNKYIDYSVYAMNSVWDCTNDIIVFRYADVLLMKAEALLQTKGESAKEEVCNLIDQLRDRCSCGRVHRENYNSKDELMELLKNERRIELANEGLRYMDLIRWKDAEKNTIVTGVGLTGQMYGAYMRKDGVGKDDKTVDVDNTPRRYIETRYFNASKGYLFPIPQKERDLNPNLTQNPNW
# What was measured:
# Experiment in all cases: glycan array binding signal (z-score within array); higher = stronger binding
# Settings in all cases: glycan notation: IUPAC condensed, linker removed
# [1] = target: GalNAc(b1-4)GlcNAc(b1-2)Man
# Method in brief: (§1)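 The Consortium for Functional Glycomics database supplied 3228 glycan arrays, of which those lacking an available protein sequence were dropped. The binding signal, a within-array Z-score, was averaged across arrays of the same protein sequence and across linkers. Negative scores can be read as non-binding.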
# [2] = target: GalNAc(b1-4)GlcNAc(b1-2)Man(a1-3)[GalNAc(b1-4)GlcNAc(b1-2)Man(a1-6)]Man(b1-4)GlcNAc(b1-4)GlcNAc
# Method in brief: as §1
# [3] = target: GalNAc(b1-4)GlcNAc(b1-3)GalNAc(b1-4)GlcNAc
# Method in brief: as §1
# [4] = target: GalNAc(b1-4)GlcNAc6S
# Method in brief: as §1
# [5] = target: GalNAc(b1-6)GalNAc
# Method in brief: as §1
# [6] = target: GalNAc3S(b1-4)GlcNAc
# Method in brief: as §1
# [7] = target: GalNAc3S(b1-4)GlcNAc3S
# Method in brief: as §1
# [8] = target: GalNAc3S(b1-4)[Fuc(a1-3)]GlcNAc
# Method in brief: as §1
# [9] = target: GalNAc4S6S(b1-4)GlcNAc
# Method in brief: as §1
# [10] = target: GalNAc6S(b1-4)GlcNAc
# Method in brief: as §1
# [11] = target: Glc(a1-4)Glc
# Method in brief: as §1
# [12] = target: Glc(a1-4)Glc(a1-4)Glc(a1-4)Glc
# Method in brief: as §1
# [13] = target: Glc(a1-6)Glc(a1-6)Glc
# Method in brief: as §1
# [14] = target: Glc(a1-6)Glc(a1-6)Glc(a1-6)Glc
# Method in brief: as §1
# [15] = target: Glc(b1-4)Glc
# Method in brief: as §1
# [16] = target: Glc(b1-6)Glc
# Method in brief: as §1
# [17] = target: GlcA(b1-3)Gal
# Method in brief: as §1
# [18] = target: GlcA(b1-3)GlcNAc
# Method in brief: as §1
# [19] = target: GlcA(b1-6)Gal
# Method in brief: as §1
# [20] = target: GlcA3S(b1-3)Gal(b1-4)GlcNAc(b1-2)Man
# Method in brief: as §1
# [21] = target: GlcA3S(b1-3)Gal(b1-4)GlcNAc(b1-3)Gal(b1-4)Glc
# Method in brief: as §1
# [22] = target: GlcNAc(a1-3)Gal(b1-4)GlcNAc
# Method in brief: as §1
# [23] = target: GlcNAc(a1-4)Gal(b1-3)GlcNAc
# Method in brief: as §1
# [24] = target: GlcNAc(a1-4)Gal(b1-4)GalNAc
# Method in brief: as §1
# [25] = target: GlcNAc(a1-4)Gal(b1-4)GlcNAc
# Method in brief: as §1
# [26] = target: GlcNAc(a1-4)Gal(b1-4)GlcNAc(b1-3)Gal(b1-4)Glc
# Method in brief: as §1
# [27] = target: GlcNAc(a1-4)Gal(b1-4)GlcNAc(b1-3)Gal(b1-4)GlcNAc
# Method in brief: as §1
# [28] = target: GlcNAc(a1-4)Gal(b1-4)GlcNAc(b1-3)Gal(b1-4)GlcNAc(b1-3)Gal(b1-4)GlcNAc
# Method in brief: as §1
# [29] = target: GlcNAc(a1-4)Gal(b1-4)GlcNAc(b1-3)Gal(b1-4)[Fuc(a1-3)]GlcNAc(b1-3)Gal(b1-4)[Fuc(a1-3)]GlcNAc
# Method in brief: as §1
# [30] = target: GlcNAc(a1-6)Gal(b1-4)GlcNAc
# Method in brief: as §1
binder,measurement,setting,value
B1,glycan array binding signal (z-score),[1],0.078
same,glycan array binding signal (z-score),[2],2.1
same,glycan array binding signal (z-score),[3],0.152
same,glycan array binding signal (z-score),[4],-0.295
same,glycan array binding signal (z-score),[5],-0.467
same,glycan array binding signal (z-score),[6],0.104
same,glycan array binding signal (z-score),[7],0.259
same,glycan array binding signal (z-score),[8],-0.153
same,glycan array binding signal (z-score),[9],-0.684
same,glycan array binding signal (z-score),[10],-0.157
same,glycan array binding signal (z-score),[11],0.041
same,glycan array binding signal (z-score),[12],-0.074
same,glycan array binding signal (z-score),[13],-0.43
same,glycan array binding signal (z-score),[14],-1.14
same,glycan array binding signal (z-score),[15],0.101
same,glycan array binding signal (z-score),[16],0.292
same,glycan array binding signal (z-score),[17],-0.822
same,glycan array binding signal (z-score),[18],0.48
same,glycan array binding signal (z-score),[19],0.748
same,glycan array binding signal (z-score),[20],-0.132
same,glycan array binding signal (z-score),[21],-1.14
same,glycan array binding signal (z-score),[22],-1.06
same,glycan array binding signal (z-score),[23],-0.218
same,glycan array binding signal (z-score),[24],-0.216
same,glycan array binding signal (z-score),[25],-0.034
same,glycan array binding signal (z-score),[26],-0.724
same,glycan array binding signal (z-score),[27],0.162
same,glycan array binding signal (z-score),[28],-0.864
same,glycan array binding signal (z-score),[29],0.865
same,glycan array binding signal (z-score),[30],-0.455

# 2 entries from above in a different format:
binder	measurement	setting	value
B1	glycan array binding signal (z-score)	[5]	-0.467
same	glycan array binding signal (z-score)	[6]	0.104
